Experimental data: publication PMC7917804
Positions count from the first letter of the chain named. No constants are given. Whether binding was seen depends on the method and setting. In cells and extracts the contact can be indirect. Binding calls can cover weak binding; strength is not graded here. For some assays here: Tags and fused reporters may be left off the sequences shown.

Key:
Assay in all cases: co-IP; lysates of HeLa cells expressing FHS-tagged TNRC6A-SD fragments (collected 24 h after transfection) or full-length TNRC6A (36 h), anti-FLAG antibody beads 2 h at 4 °C, lysis buffer with 140 mM NaCl, wash buffer with 300 mM NaCl and 0.5% NP40; endogenous CNOT1, CNOT9 and PABP detected by Western …
[1] = molecular target: T1, FHS-TNRC6A-SD-S1332A/S1346A (human) (UniProt Q8NDV7)
T1 sequence: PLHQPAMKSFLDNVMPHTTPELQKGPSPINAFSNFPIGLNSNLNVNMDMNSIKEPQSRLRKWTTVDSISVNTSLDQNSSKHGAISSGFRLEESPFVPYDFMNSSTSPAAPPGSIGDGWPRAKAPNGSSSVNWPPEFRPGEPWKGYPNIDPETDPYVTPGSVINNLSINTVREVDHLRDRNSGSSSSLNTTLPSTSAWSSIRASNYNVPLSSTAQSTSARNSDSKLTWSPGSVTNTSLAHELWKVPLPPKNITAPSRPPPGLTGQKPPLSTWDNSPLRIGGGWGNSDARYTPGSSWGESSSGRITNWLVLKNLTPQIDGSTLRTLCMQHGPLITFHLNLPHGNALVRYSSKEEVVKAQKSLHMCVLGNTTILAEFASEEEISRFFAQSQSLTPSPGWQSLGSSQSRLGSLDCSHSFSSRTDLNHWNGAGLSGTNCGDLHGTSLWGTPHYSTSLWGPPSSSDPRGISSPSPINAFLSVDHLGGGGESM

[2] = molecular target: T2, FHS-TNRC6A-SD-S1332D/S1346D (human) (UniProt Q8NDV7)
T2 sequence: T1 sequence with A109D, A123D

[3] = molecular target: T3, FHS-TNRC6A-SD-S1616A/S1691A (human) (UniProt Q8NDV7)
T3 sequence: T1 sequence with A109S, A123S, S393A, S468A

[4] = molecular target: T4, FHS-TNRC6A-SD-S1616D/S1691D (human) (UniProt Q8NDV7)
T4 sequence: T1 sequence with A109S, A123S, S393D, S468D

[5] = molecular target: T5, FLAG-HA-SBP (FHS)-tagged TNRC6A-SD-WT (human) (UniProt Q8NDV7)
T5 sequence: T1 sequence with A109S, A123S

Measured: binding

poly(A)-binding protein (PABP) (human (endogenous in HeLa))
binds: all assays above
